Measured values reported in the supplement of paper PMC10849652.
Some of the results follow.

Amino acid sequences for entries named in this document (tags omitted). A change or cut given only in a name is not applied to a line headed by its entry.
UniProt Q86UY8: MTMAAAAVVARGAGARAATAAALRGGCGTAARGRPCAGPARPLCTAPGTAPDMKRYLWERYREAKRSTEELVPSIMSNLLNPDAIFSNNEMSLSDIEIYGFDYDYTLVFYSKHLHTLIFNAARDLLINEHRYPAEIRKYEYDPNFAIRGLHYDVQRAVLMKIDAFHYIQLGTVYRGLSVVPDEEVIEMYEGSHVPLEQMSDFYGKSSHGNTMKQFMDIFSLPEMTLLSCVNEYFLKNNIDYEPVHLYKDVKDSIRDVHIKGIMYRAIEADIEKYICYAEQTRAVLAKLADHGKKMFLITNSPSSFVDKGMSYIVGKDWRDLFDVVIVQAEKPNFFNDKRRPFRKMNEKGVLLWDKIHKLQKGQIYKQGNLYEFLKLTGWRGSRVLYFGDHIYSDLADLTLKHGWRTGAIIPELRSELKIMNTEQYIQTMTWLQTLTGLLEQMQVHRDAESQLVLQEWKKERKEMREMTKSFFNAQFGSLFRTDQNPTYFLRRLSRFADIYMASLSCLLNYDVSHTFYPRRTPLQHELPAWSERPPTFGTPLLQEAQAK
UniProt P49902: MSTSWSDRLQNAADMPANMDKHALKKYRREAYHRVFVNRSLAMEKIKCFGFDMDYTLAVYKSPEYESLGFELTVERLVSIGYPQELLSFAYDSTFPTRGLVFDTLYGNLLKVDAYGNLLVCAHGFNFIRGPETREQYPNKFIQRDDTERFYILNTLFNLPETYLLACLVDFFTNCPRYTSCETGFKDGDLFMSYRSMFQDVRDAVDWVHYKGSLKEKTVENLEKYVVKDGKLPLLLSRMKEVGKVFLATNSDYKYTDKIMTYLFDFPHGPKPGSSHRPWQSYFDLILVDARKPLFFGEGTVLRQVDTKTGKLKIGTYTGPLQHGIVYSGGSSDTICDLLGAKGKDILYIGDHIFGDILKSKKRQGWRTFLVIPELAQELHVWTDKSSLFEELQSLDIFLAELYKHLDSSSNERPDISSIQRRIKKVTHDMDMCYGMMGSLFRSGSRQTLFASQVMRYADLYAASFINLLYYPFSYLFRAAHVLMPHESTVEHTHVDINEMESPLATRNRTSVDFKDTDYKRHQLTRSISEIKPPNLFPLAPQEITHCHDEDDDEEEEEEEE
UniProt Q8WVJ2: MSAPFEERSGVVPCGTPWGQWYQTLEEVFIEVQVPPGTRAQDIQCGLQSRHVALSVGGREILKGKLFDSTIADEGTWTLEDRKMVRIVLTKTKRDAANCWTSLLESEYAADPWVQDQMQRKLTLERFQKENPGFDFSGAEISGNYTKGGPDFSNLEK
UniProt Q96MF7: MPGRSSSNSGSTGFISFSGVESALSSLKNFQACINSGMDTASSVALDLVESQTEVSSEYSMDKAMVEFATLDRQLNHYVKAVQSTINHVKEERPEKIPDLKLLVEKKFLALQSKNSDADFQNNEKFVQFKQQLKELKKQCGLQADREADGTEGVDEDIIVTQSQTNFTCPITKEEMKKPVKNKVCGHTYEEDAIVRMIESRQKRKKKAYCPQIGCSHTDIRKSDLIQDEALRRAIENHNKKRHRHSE
UniProt Q9H1E3: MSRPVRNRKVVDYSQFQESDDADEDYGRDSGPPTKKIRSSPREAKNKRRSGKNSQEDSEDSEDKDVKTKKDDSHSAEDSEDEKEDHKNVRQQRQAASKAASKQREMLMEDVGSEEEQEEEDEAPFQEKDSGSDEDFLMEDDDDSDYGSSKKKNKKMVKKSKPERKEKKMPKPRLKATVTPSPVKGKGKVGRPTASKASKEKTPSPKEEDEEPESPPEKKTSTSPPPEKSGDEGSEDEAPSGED
UniProt Q9BW91: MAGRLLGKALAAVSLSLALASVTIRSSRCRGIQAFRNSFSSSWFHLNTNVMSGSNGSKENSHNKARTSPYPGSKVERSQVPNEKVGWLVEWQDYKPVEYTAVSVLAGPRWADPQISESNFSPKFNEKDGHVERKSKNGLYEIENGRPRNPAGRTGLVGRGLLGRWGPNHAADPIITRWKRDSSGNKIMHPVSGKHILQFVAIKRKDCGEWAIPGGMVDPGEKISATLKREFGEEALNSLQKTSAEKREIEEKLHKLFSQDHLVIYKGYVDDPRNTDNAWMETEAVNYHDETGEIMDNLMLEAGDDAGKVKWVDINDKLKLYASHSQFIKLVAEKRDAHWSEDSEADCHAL
UniProt O43847: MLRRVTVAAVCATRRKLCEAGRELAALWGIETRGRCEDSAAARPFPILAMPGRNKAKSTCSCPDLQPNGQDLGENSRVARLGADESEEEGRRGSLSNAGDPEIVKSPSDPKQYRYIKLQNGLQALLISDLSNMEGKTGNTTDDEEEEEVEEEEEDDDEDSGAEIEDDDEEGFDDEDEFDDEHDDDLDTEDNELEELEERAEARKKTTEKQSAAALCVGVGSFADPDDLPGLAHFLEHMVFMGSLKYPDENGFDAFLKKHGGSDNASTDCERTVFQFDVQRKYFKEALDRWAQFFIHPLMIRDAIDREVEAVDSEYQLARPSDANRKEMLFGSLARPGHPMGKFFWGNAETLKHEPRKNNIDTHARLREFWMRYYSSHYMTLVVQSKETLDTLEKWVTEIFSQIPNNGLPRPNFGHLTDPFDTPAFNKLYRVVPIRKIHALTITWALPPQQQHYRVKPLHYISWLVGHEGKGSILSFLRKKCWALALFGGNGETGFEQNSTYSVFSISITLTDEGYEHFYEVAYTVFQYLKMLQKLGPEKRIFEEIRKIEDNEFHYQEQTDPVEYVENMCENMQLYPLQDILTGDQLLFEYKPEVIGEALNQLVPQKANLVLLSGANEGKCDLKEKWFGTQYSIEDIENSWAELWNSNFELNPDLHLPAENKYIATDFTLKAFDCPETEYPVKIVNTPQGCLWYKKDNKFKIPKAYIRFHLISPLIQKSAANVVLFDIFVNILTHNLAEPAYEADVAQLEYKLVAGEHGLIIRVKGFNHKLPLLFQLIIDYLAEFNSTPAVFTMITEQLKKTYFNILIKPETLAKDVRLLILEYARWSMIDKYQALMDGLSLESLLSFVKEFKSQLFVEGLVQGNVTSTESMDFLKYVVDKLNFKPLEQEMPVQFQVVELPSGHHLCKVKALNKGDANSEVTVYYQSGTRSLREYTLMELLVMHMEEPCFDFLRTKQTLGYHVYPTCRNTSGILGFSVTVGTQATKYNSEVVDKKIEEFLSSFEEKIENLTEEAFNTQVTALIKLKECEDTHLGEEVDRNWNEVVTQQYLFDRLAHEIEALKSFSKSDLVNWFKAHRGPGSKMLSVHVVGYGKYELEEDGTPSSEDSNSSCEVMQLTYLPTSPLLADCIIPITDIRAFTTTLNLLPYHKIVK
UniProt Q5JPE7: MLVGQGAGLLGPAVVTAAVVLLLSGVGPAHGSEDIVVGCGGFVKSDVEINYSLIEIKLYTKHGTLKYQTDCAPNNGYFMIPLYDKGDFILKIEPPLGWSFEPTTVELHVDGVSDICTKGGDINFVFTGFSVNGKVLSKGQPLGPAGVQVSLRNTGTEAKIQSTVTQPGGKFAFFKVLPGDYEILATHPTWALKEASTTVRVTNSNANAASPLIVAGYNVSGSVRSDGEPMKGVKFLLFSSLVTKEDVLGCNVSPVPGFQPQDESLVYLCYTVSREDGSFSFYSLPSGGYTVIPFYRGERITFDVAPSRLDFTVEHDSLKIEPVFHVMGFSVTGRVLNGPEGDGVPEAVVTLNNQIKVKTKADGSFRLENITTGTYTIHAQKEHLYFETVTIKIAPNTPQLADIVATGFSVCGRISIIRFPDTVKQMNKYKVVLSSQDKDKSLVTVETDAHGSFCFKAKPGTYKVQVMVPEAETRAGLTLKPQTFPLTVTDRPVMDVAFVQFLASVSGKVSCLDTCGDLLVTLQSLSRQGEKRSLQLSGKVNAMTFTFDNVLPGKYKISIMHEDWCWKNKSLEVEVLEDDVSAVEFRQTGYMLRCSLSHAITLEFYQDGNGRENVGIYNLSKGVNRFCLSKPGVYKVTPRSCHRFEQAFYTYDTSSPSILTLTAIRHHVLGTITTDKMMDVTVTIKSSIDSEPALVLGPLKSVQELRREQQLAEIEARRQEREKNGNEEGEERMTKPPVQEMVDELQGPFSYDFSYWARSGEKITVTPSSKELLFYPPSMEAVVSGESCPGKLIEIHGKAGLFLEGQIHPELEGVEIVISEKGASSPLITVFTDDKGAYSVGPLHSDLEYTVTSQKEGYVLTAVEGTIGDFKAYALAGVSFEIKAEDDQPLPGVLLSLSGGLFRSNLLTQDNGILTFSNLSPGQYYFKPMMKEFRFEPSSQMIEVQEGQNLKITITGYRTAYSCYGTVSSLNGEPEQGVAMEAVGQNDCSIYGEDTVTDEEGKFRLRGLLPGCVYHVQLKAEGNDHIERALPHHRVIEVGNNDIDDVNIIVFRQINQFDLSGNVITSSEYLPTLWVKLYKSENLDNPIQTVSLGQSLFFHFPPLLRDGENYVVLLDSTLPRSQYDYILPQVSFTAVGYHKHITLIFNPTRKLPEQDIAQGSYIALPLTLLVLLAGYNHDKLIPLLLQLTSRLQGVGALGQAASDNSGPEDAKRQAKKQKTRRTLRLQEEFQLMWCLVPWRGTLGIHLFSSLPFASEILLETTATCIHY
UniProt O15118: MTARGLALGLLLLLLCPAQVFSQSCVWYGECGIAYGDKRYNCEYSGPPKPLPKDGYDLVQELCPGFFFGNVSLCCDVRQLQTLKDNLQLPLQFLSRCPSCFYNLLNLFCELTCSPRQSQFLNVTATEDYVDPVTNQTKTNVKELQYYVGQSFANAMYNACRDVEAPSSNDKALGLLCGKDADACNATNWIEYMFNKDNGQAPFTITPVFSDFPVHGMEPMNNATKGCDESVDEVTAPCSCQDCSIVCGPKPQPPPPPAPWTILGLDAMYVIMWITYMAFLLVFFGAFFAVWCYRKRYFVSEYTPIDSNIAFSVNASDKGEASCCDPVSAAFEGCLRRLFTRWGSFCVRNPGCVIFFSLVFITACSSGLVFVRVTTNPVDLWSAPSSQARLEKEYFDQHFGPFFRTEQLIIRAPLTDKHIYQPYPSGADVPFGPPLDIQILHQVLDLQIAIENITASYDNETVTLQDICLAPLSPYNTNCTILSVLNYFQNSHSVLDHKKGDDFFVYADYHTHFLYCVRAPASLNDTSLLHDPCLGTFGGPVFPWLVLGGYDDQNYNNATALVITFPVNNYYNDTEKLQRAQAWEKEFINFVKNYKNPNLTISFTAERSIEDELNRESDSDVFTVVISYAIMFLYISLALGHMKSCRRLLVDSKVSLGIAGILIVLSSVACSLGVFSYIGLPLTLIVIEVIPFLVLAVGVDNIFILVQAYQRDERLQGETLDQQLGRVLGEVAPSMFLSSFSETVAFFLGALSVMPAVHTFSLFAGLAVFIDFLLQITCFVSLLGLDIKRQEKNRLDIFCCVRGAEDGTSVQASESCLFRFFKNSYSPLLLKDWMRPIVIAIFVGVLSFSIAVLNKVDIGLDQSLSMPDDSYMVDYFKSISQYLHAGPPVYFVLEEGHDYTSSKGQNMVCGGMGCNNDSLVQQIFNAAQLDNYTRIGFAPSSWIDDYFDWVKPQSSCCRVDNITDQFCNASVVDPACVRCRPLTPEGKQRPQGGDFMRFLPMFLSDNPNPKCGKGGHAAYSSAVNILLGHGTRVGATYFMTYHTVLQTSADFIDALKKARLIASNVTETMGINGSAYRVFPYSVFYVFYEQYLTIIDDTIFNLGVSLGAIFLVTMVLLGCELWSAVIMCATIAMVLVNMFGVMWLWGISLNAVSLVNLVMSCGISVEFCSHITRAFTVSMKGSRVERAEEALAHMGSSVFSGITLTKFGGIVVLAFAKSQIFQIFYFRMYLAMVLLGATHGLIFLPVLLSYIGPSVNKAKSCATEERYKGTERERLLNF
UniProt P04150: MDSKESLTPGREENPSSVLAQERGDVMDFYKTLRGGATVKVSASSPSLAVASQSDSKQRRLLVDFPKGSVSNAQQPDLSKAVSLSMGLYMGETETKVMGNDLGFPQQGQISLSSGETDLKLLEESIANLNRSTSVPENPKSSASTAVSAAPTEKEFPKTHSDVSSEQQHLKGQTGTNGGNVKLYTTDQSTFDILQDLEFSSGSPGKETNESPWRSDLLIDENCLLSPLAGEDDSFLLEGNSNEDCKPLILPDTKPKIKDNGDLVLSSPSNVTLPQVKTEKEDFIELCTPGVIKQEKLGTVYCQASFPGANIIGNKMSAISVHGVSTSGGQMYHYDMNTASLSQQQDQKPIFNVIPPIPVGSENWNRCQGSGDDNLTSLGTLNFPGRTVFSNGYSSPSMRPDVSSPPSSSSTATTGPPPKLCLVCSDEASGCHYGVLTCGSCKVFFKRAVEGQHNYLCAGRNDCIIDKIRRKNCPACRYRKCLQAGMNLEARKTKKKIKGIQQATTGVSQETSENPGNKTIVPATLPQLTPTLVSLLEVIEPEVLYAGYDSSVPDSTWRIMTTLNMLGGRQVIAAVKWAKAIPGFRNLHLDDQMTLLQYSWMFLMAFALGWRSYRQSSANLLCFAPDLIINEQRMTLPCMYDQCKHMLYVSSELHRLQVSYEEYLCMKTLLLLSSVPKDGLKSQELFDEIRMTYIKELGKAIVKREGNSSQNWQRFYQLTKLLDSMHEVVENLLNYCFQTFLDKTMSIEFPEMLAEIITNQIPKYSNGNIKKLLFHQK

Experiments:
Assay in all cases: log2 fold change, soluble protein after heating vs DMSO (PISA); higher = thermal stabilisation; K562 lysate, 10 uM; active = over 0.2 and 3.5 SD of the protein, either way, in both replicates (recomputed)
vemurafenib = compound: CCCS(=O)(=O)Nc1ccc(F)c(C(=O)c2c[nH]c3ncc(-c4ccc(Cl)cc4)cc23)c1F [vemurafenib]
In short: (§1)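 Soluble protein was defined as the supernatant remaining after 21,000xg for 90 min, following pooling of heated aliquots and adjustment to 0.5% NP-40 at 4°C. Before that, crude K562 extract at 1 mg/mL protein in PBS pH 7.4 with 1 mM MgCl2 was treated with 10 μM compound for 30 min and heated for 3 min across 48°C-58°C. Quantification used TMTpro 16plex LC-MS/MS with channel sums equalised, and values are log-two fold changes in thermal stability relative to solvent controls from duplicates.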

[1] = compound: CCCS(=O)(=O)Nc1ccc(F)c(C(=O)c2c[nH]c3ncc(Cl)cc23)c1F
In short: as §1

barasertib = compound: CCN(CCCOc1ccc2c(Nc3cc(CC(=O)Nc4cccc(F)c4)[nH]n3)ncnc2c1)CCOP(=O)(O)O [barasertib]
In short: as §1

[2] = compound: CC[C@@H]1C(=O)N(C)c2cnc(Nc3ccc(C(=O)NC4CCN(C)CC4)cc3OC)nc2N1C1CCCC1
In short: as §1

volasertib = compound: CC[C@@H]1C(=O)N(C)c2cnc(Nc3ccc(C(=O)N[C@H]4CC[C@H](N5CCN(CC6CC6)CC5)CC4)cc3OC)nc2N1C(C)C [volasertib]
In short: as §1

[3] = compound: CCn1c(C(=O)N(C2CC2)C2CC2)cc2c3c(ncn3C)c(Nc3cc(C)n(C)n3)nc21
In short: as §1

[4] = compound: CCn1cc(-c2ccnc3[nH]c(-c4cccc(CN(C)C)c4)cc23)c(-c2ccc(NC(=O)N(C)C)cc2)n1
In short: as §1

[5] = compound: CN1CCC(CNc2ccc3ncc(-c4cccc(OC(F)(F)F)c4)n3n2)CC1
In short: as §1

saracatinib = compound: CN1CCN(CCOc2cc(OC3CCOCC3)c3c(Nc4c(Cl)ccc5c4OCO5)ncnc3c2)CC1 [saracatinib]
In short: as §1

sotrastaurin = compound: CN1CCN(c2nc(C3=C(c4c[nH]c5ccccc45)C(=O)NC3=O)c3ccccc3n2)CC1 [sotrastaurin]
In short: as §1

alvocidib = compound: CN1CC[C@H](c2c(O)cc(O)c3c(=O)cc(-c4ccccc4Cl)oc23)[C@H](O)C1 [alvocidib]
In short: as §1

Tubastatin A = compound: CN1CCc2c(c3ccccc3n2Cc2ccc(C(=O)NO)cc2)C1 [Tubastatin A]
In short: as §1

[6] = compound: CNC(=O)C1=CC=CC=C1NC2=NC(=NC=C2Cl)NC3=C(C=C(C=C3)N4CCOCC4)OC
In short: as §1

defactinib = compound: CNC(=O)c1ccc(Nc2ncc(C(F)(F)F)c(NCc3nccnc3N(C)S(C)(=O)=O)n2)cc1 [defactinib]
In short: as §1

[7] = compound: CNc1nc(-c2ccc3c(N)n[nH]c3c2)cc(N2C[C@@H](C(=O)NC3CCCCC3)CC[C@H]2C)n1
In short: as §1

encorafenib = compound: COC(=O)N[C@@H](C)CNc1nccc(-c2cn(C(C)C)nc2-c2cc(Cl)cc(NS(C)(=O)=O)c2F)n1 [encorafenib]
In short: as §1

[8] = compound: COC(=O)[C@H](CCSC)NC(=O)C1=C(C=C(C=C1)NC[C@H](CS)N)C2=CC=CC=C2
In short: as §1

alisertib = compound: COc1cc(Nc2ncc3c(n2)-c2ccc(Cl)cc2C(c2c(F)cccc2OC)=NC3)ccc1C(=O)O [alisertib]
In short: as §1

[9] = compound: COc1cc2nc(-c3cc(F)ccc3O)nc(N[C@@H]3CNC[C@H]3C(C)(C)O)c2cc1OC
In short: as §1

gefitinib = compound: COc1cc2ncnc(Nc3ccc(F)c(Cl)c3)c2cc1OCCCN1CCOCC1 [gefitinib]
In short: as §1

Target | log2 fold change (vemurafenib) | log2 fold change [1] | log2 fold change (barasertib) | log2 fold change [2] | log2 fold change (volasertib) | log2 fold change [3] | log2 fold change [4] | log2 fold change [5] | log2 fold change (saracatinib) | log2 fold change (sotrastaurin) | log2 fold change (alvocidib) | log2 fold change (Tubastatin A) | log2 fold change [6] | log2 fold change (defactinib) | log2 fold change [7] | log2 fold change (encorafenib) | log2 fold change [8] | log2 fold change (alisertib) | log2 fold change [9] | log2 fold change (gefitinib)
NT5DC3 (UniProt Q86UY8) | inactive: -0.004 | inactive: 0.001 | inactive: -0.004 | inactive: 0.003 | inactive: -0.015 | inactive: 0.01 | inactive: -0.057 | inactive: 0.043 | inactive: -0.017 | inactive: 0.049 | inactive: -0.01 | inactive: 0.042 | inactive: -0.02 | inactive: 0.001 | inactive: -0.043 | inactive: -0.005 | inactive: -0.012 | inactive: -0.008 | inactive: -0.029 | inactive: -0.008
NT5C2 (UniProt P49902) | inactive: 0.001 | inactive: -0.003 | inactive: -0.024 | inactive: -0.006 | inactive: 0.004 | inactive: -0.062 | inactive: -0.014 | inactive: 0.058 | inactive: 0.02 | inactive: 0.028 | inactive: 0.013 | inactive: 0.041 | inactive: 0.009 | inactive: -0.024 | inactive: -0.017 | inactive: 0.013 | inactive: 0.005 | inactive: -0.034 | inactive: -0.009 | inactive: -0.004
NUDCD2 (UniProt Q8WVJ2) | inactive: -0.022 | inactive: 0.035 | inactive: 0.008 | inactive: 0.047 | inactive: 0.02 | inactive: -0.018 | inactive: -0.031 | inactive: 0.003 | inactive: -0.014 | inactive: -0.017 | inactive: 0.002 | inactive: 0.002 | inactive: -0.004 | inactive: -0.034 | inactive: 0.12 | inactive: -0.015 | inactive: -0.09 | inactive: 0.037 | inactive: 0.015 | inactive: -0.039
NOC2L (UniProt Q9Y3T9) | inactive: 0.04 | inactive: 0.021 | inactive: 0.028 | inactive: -0.029 | inactive: -0.035 | inactive: 0.006 | inactive: -0.079 | inactive: -0.016 | inactive: -0.078 | inactive: 0.05 | inactive: -0.009 | inactive: -0.066 | inactive: 0.043 | inactive: 0.121 | active: 0.257 | inactive: 0.048 | inactive: -0.02 | inactive: 0.01 | inactive: 0.06 | inactive: -0.03
NSMCE2 (UniProt Q96MF7) | inactive: -0.05 | inactive: -0.014 | inactive: 0.011 | inactive: -0.035 | inactive: -0.013 | inactive: 0.113 | inactive: 0.065 | inactive: -0.062 | inactive: 0.023 | inactive: 0.015 | inactive: 0 | inactive: -0.02 | inactive: 0.098 | inactive: -0.026 | inactive: -0.175 | inactive: 0.006 | inactive: -0.03 | inactive: -0.019 | inactive: 0.012 | inactive: 0.019
NUCKS1 (UniProt Q9H1E3) | inactive: 0.006 | inactive: -0.006 | inactive: -0.001 | inactive: 0.057 | inactive: 0.017 | inactive: -0.022 | inactive: -0.012 | inactive: -0.007 | inactive: 0.043 | inactive: -0.025 | inactive: -0.009 | inactive: 0.055 | inactive: -0.001 | inactive: 0.02 | inactive: 0.08 | inactive: -0.026 | inactive: -0.02 | inactive: 0.025 | inactive: 0.01 | inactive: -0.009
NONO (UniProt Q15233) | inactive: -0.005 | inactive: 0.018 | inactive: -0.006 | inactive: -0.032 | inactive: -0.049 | inactive: 0 | inactive: 0.076 | inactive: -0.043 | inactive: 0.004 | inactive: -0.015 | inactive: 0.049 | inactive: -0.126 | inactive: 0.04 | inactive: -0.01 | inactive: 0.014 | inactive: 0.011 | inactive: 0.102 | inactive: 0.026 | inactive: -0.004 | inactive: 0.007
NSF (UniProt P46459) | inactive: -0.003 | inactive: 0.015 | inactive: 0.019 | inactive: -0.026 | inactive: -0.051 | inactive: 0.019 | inactive: 0.014 | inactive: -0.077 | inactive: 0.019 | inactive: -0.013 | inactive: -0.013 | inactive: -0.051 | inactive: 0.015 | inactive: -0.011 | inactive: -0.023 | inactive: -0.007 | inactive: 0.128 | inactive: 0.021 | inactive: -0.009 | inactive: 0.015
NR2C2AP isoform 2 (UniProt Q86WQ0) | inactive: -0.026 | inactive: 0.029 | inactive: 0.044 | inactive: -0.09 | inactive: 0.022 | inactive: 0.003 | inactive: -0.107 | inactive: 0.024 | inactive: -0.066 | inactive: -0.113 | inactive: -0.063 | inactive: 0.023 | inactive: 0.005 | inactive: 0.003 | inactive: 0.022 | inactive: 0.029 | inactive: -0.031 | inactive: 0.041 | inactive: -0.002 | inactive: 0.081
NUDT9 (UniProt Q9BW91) | inactive: 0.018 | inactive: 0.025 | inactive: -0.049 | inactive: -0.001 | inactive: 0.006 | inactive: -0.003 | inactive: -0.036 | inactive: 0.021 | inactive: -0.011 | inactive: 0.02 | inactive: 0.019 | inactive: -0.032 | inactive: 0.037 | inactive: 0.03 | inactive: -0.023 | inactive: 0.018 | inactive: -0.09 | inactive: -0.045 | inactive: 0.005 | inactive: 0.011
NOL11 (UniProt Q9H8H0) | inactive: 0.026 | inactive: 0.017 | inactive: -0.01 | inactive: 0.033 | inactive: -0.022 | inactive: -0.068 | inactive: -0.088 | inactive: 0.035 | inactive: -0.02 | inactive: 0.065 | inactive: 0.027 | inactive: -0.018 | inactive: 0.023 | inactive: 0.026 | inactive: 0.034 | inactive: 0.036 | inactive: -0.055 | inactive: -0.003 | inactive: 0.045 | inactive: -0.034
NRDC isoform 2 (UniProt O43847) | inactive: 0.006 | inactive: -0.001 | inactive: 0.012 | inactive: -0.049 | inactive: -0.005 | inactive: 0.006 | inactive: -0.019 | inactive: -0.037 | inactive: 0.001 | inactive: -0.006 | inactive: 0.013 | inactive: 0.007 | inactive: 0 | inactive: -0.022 | inactive: -0.028 | inactive: -0.029 | inactive: 0.007 | inactive: -0.011 | inactive: 0.001 | inactive: -0.019
NOMO2 (UniProt Q5JPE7) | inactive: 0.009 | inactive: 0.008 | inactive: 0.011 | inactive: -0.02 | inactive: -0.015 | inactive: -0.024 | inactive: -0.015 | inactive: 0.022 | inactive: 0.028 | inactive: -0.006 | inactive: -0.021 | inactive: 0.023 | inactive: 0.014 | inactive: 0.03 | inactive: 0.013 | inactive: 0 | inactive: -0.024 | inactive: -0.002 | inactive: -0.031 | inactive: 0.021
NUCB2 (UniProt P80303) | inactive: 0.01 | inactive: -0.009 | inactive: -0.004 | inactive: 0.052 | inactive: 0.022 | inactive: -0.008 | active: 0.338 | inactive: -0.084 | inactive: 0.015 | inactive: -0.026 | inactive: 0.061 | inactive: 0.036 | inactive: 0.007 | inactive: -0.039 | inactive: 0.005 | inactive: 0.001 | inactive: -0.027 | inactive: 0.003 | inactive: 0.014 | inactive: 0.004
NPC1 (UniProt O15118) | inactive: -0.001 | inactive: -0.018 | inactive: 0.051 | inactive: 0.074 | inactive: -0.008 | inactive: -0.022 | inactive: -0.073 | inactive: 0.045 | inactive: -0.013 | inactive: 0.007 | inactive: 0.002 | inactive: 0.019 | inactive: -0.016 | inactive: 0.011 | inactive: -0.02 | inactive: 0.01 | inactive: -0.031 | inactive: 0.018 | inactive: -0.003 | inactive: 0.054
NR3C1 isoform 3 (UniProt P04150) | inactive: -0.138 | inactive: 0.027 | inactive: -0.385 | inactive: -0.086 | inactive: -0.046 | inactive: 0.001 | inactive: 0.07 | inactive: -0.081 | inactive: 0.072 | inactive: -0.016 | inactive: -0.004 | inactive: -0.088 | inactive: 0.048 | inactive: 0.021 | inactive: -0.093 | inactive: 0.05 | inactive: 0.029 | inactive: 0.045 | inactive: -0.001 | inactive: 0.013

Single values from the results shown.
NOMO2 (UniProt Q5JPE7) – log2 fold change [1]: inactive: 0.008
NSMCE2 (UniProt Q96MF7) – log2 fold change [7]: inactive: -0.175
